{"source": "patent US20140107218A1", "about": "“METHODS FOR MAINTAINING EYE HEALTH AND AMELIORATING OPTHALMIC MALADIES IN ANIMALS” (NESTEC SA, priority 2012, published 2014)", "assay": "Metabolite analysis of lens fractions from young and senior dogs", "design": "species or system dog", "settings": "for Fold Change In Polyamines In Young Vs. Old Dog Lens Fractions, Nucleus: Young Vs. Old Canine: inner nuclear lens layer; for Fold Change In Polyamines In Young Vs. Old Dog Lens Fractions, Nucleus: Young Vs. Old Canine / Fold Change In Polyamines In Young Vs. Old Dog Lens Fractions, Epithelial/Cortical: Young Vs. Old Canine: young (2-3 years old) vs senior (10+ years old) dogs; for Fold Change In Polyamines In Young Vs. Old Dog Lens Fractions, Epithelial/Cortical: Young Vs. Old Canine: outer epithelial/cortical lens layer; for Amount of polyamine in young dog lenses compared to senior dog lenses (in words): young vs senior dog lenses", "data": [{"smiles": "NCCCCN", "note": "[Putrescine, putrescine]", "values": [{"measurement": "Fold Change In Polyamines In Young Vs. Old Dog Lens Fractions, Nucleus: Young Vs. Old Canine", "result": 1}, {"measurement": "Fold Change In Polyamines In Young Vs. Old Dog Lens Fractions, Epithelial/Cortical: Young Vs. Old Canine", "result": 1.45}, {"measurement": "Amount of polyamine in young dog lenses compared to senior dog lenses (in words)", "result": "higher in the young dog lenses"}]}, {"smiles": "NCCCCNCCCN", "note": "[Spermidine, spermidine]", "values": [{"measurement": "Fold Change In Polyamines In Young Vs. Old Dog Lens Fractions, Nucleus: Young Vs. Old Canine", "result": 1.71}, {"measurement": "Fold Change In Polyamines In Young Vs. Old Dog Lens Fractions, Epithelial/Cortical: Young Vs. Old Canine", "result": 1.79}, {"measurement": "Amount of polyamine in young dog lenses compared to senior dog lenses (in words)", "result": "higher in the young dog lenses"}]}, {"smiles": "NCCCNCCCCNCCCN", "note": "[Spermine, spermine]", "values": [{"measurement": "Fold Change In Polyamines In Young Vs. Old Dog Lens Fractions, Nucleus: Young Vs. Old Canine", "result": 1}, {"measurement": "Fold Change In Polyamines In Young Vs. Old Dog Lens Fractions, Epithelial/Cortical: Young Vs. Old Canine", "result": 2.78}, {"measurement": "Amount of polyamine in young dog lenses compared to senior dog lenses (in words)", "result": "higher in the young dog lenses"}]}]}
